No constants are given. Whether binding was seen depends on the method and setting. Binding seen in cells or lysates may run through a third protein. Some results given as binding are weak or reduced against the parent protein; the word gives no strength.

Chains of the proteins cited; added tags and fusions are not shown.
UniProt P31751: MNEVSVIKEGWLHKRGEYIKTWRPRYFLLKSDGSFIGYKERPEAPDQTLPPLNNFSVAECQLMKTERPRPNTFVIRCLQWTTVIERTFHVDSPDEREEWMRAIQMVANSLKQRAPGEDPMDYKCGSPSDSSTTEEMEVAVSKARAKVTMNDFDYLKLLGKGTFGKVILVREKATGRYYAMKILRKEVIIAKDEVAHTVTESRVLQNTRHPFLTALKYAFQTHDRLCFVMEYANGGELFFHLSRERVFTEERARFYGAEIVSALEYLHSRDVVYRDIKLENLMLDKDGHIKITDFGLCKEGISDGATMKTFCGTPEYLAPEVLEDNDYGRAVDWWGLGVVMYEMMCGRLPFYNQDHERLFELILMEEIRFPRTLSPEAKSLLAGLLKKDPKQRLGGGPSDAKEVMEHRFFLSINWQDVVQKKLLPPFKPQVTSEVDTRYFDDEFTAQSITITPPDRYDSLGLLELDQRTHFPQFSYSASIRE
UniProt P04406: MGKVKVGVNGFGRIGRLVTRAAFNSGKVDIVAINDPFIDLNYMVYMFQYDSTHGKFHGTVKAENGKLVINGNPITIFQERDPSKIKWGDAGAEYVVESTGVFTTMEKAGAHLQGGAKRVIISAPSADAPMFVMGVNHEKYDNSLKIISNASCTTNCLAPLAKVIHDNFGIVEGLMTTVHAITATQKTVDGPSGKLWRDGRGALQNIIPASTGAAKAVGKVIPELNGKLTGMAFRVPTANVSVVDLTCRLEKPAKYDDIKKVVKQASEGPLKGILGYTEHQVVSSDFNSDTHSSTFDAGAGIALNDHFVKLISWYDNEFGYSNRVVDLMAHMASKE
UniProt P06733: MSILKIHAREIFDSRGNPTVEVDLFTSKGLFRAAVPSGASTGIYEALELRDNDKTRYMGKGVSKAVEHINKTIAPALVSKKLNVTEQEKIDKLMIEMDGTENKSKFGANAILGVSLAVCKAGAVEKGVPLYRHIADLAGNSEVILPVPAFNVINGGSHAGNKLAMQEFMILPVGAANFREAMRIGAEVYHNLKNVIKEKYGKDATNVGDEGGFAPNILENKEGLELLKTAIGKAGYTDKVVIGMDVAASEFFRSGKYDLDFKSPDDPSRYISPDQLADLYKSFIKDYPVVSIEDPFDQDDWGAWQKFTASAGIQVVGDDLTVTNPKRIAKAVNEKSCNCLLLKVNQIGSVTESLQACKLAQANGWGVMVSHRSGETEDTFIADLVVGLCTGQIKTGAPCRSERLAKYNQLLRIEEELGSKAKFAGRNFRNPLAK

The test concerns the target AKT2-NTag (AKT2 N-terminally fused with a TAP-Tag consisting of HA-Tag, StrepII-Tag and FLAG-Tag) (UniProt P31751). Nature of the test: proximity ligation; Duolink in situ PLA on fixed, permeabilised HEK293T AKT2-NTag cells; anti-AKT2 (mouse) with anti-GAPDH, anti-ENO1 or anti-eEF2 (rabbit); controls with one primary antibody.

Take “Glyceraldehyde-3-phosphate-dehydrogenase (from UniProt P04406 1-335)”: the binding result is “binds”. α-enolase (from UniProt P06733 1-434): the binding entry is “binds”.

Source of the values: publication PMC3688836.
